Results on one molecule are retold here after article PMC12765388.

By UniProt entry, the sequences of proteins in these tests, tags left out.
UniProt Q9UQE7: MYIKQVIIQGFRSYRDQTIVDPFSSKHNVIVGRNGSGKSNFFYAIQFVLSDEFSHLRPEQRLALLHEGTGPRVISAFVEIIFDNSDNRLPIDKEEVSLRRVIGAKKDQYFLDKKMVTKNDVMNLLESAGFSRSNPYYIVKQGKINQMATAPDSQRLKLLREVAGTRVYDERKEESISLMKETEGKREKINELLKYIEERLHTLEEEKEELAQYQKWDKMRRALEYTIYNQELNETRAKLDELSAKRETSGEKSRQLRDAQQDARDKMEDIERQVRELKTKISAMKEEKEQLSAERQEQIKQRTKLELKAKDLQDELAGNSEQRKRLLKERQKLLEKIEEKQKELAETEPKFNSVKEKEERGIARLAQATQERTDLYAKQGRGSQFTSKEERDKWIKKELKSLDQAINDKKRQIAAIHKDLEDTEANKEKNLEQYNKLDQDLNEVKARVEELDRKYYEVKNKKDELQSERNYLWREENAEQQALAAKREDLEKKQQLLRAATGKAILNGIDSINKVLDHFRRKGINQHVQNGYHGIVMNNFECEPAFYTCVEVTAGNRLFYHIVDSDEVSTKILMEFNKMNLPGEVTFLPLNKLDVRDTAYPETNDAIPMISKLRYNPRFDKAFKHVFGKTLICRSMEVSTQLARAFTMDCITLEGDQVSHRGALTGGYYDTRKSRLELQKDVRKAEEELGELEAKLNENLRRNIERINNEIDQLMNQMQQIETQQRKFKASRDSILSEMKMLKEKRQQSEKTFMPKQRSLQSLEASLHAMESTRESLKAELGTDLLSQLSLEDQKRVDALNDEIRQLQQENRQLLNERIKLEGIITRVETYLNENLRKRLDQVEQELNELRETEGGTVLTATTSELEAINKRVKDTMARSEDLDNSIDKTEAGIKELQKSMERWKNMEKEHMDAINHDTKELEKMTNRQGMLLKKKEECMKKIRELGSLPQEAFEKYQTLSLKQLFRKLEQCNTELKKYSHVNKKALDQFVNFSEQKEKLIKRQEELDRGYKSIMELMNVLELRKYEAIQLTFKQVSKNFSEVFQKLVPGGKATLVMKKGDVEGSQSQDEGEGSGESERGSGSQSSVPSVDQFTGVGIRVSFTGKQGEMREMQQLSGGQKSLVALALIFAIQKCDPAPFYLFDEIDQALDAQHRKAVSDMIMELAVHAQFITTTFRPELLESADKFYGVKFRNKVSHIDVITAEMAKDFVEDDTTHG

For this assay, the target named is SMC3 (human (endogenous in HCT116)) (UniProt Q9UQE7). Kind of assay: co-IP; co-immunoprecipitation of STAG3-EGFP with SMC3 from doxycycline-induced STAG3-EGFP HCT116 cells.

No constants are given. Whether binding was seen depends on the method and setting. In cells and extracts the contact can be indirect. Some binding calls cover weakened binding; strength is not graded here. Where a sequence is shown, tags or fusion partners need not be part of it.

B1: STAG3-EGFP (protein, UniProt Q9UJ98 1-1225)
chain: MSSPLQRAVGDTKRALSASSSSSASLPFDDRDSNHTSEGNGDSLLADEDTDFEDSLNRNVKKRAAKRPPKTTPVAKHPKKGSRVVHRHSRKQSEPPANDLFNAVKAAKSDMQSLVDEWLDSYKQDQDAGFLELVNFFIQSCGCKGIVTPEMFKKMSNSEIIQHLTEQFNEDSGDYPLIAPGPSWKKFQGSFCEFVRTLVCQCQYSLLYDGFPMDDLISLLTGLSDSQVRAFRHTSTLAAMKLMTSLVKVALQLSVHQDNNQRQYEAERNKGPGQRAPERLESLLEKRKELQEHQEEIEGMMNALFRGVFVHRYRDVLPEIRAICIEEIGCWMQSYSTSFLTDSYLKYIGWTLHDKHREVRLKCVKALKGLYGNRDLTTRLELFTSRFKDRMVSMVMDREYDVAVEAVRLLILILKNMEGVLTDADCESVYPVVYASHRGLASAAGEFLYWKLFYPECEIRMMGGREQRQSPGAQRTFFQLLLSFFVESELHDHAAYLVDSLWDCAGARLKDWEGLTSLLLEKDQNLGDVQESTLIEILVSSARQASEGHPPVGRVTGRKGLTSKERKTQADDRVKLTEHLIPLLPQLLAKFSADAEKVTPLLQLLSCFDLHIYCTGRLEKHLELFLQQLQEVVVKHAEPAVLEAGAHALYLLCNPEFTFFSRADFARSQLVDLLTDRFQQELEELLQSSFLDEDEVYNLAATLKRLSAFYNTHDLTRWELYEPCCQLLQKAVDTGEVPHQVILPALTLVYFSILWTLTHISKSDASQKQLSSLRDRMVAFCELCQSCLSDVDTEIQEQAFVLLSDLLLIFSPQMIVGGRDFLRPLVFFPEATLQSELASFLMDHVFIQPGDLGSGDSQEDHLQIERLHQRRRLLAGFCKLLLYGVLEMDAASDVFKHYNKFYNDYGDIIKETLTRARQIDRSHCSRILLLSLKQLYTELLQEHGPQGLNELPAFIEMRDLARRFALSFGPQQLQNRDLVVMLHKEGIQFSLSELPPAGSSNQPPNLAFLELLSEFSPRLFHQDKQLLLSYLEKCLQHVSQAPGHPWGPVTTYCHSLSPVENTAETSPQVLPSSKRRRVEGPAKPNREDVSSSQEESLQLNSIPPTPTLTSTAVKSRQPLWGLKEMEEEDGSELDFAQGQPVAGTERSRFLGPQYFQTPHNPSGPGLGNQLMRLSLMEEDEEEELEIQDESNEERQDTDMQASSYSSTSERGLDLLDSTELDIEDF
B1: the binding entry is “binds”.
